Data reported in patent publication US9827219B2, “Compositions and methods for lowering levels of high-sensitivity C-reactive protein (HS-CRP) in a subject” (priority 2012, dated 2017).

Test: Essential fatty acid parameters in plasma and RBC, AAMI pilot study (Example 1)
Type: in vivo, human
Conditions: for AA LS mean, 1 g versus 4 g / AA LS mean, 2 g versus 4 g / DGLA LS mean, 1 g versus 4 g / DGLA LS mean, 2 g versus 4 g / DHA LS mean, 1 g versus 4 g / DHA LS mean, 2 g versus 4 g / DPAn-3 LS mean, 1 g versus 4 g / DPAn-3 LS mean, 2 g versus 4 g / EPA/AA LS mean, 1 g versus 4 g / EPA/AA LS mean, 2 g versus 4 g: ANCOVA

CC/C=C\C/C=C\C/C=C\C/C=C\C/C=C\CCCC(=O)OCC [AMR101, all-cis eicosa-5,8,11,14,17-pentaenoic acid ethyl ester]
AA LS mean, 1 g versus 4 g (RBC): 8.4 µg/g
AA LS mean, 2 g versus 4 g (RBC): 9.8 µg/g
DGLA LS mean, 1 g versus 4 g (RBC): 1.5 µg/g
DGLA LS mean, 2 g versus 4 g (RBC): 1.5 µg/g
DHA LS mean, 1 g versus 4 g (RBC): 1.0 µg/g
DHA LS mean, 2 g versus 4 g (RBC): 1.0 µg/g
DPAn-3 LS mean, 1 g versus 4 g (RBC): -6.2 µg/g
DPAn-3 LS mean, 2 g versus 4 g (RBC): -2.5 µg/g
EPA/AA LS mean, 1 g versus 4 g (RBC): −0.18
EPA/AA LS mean, 2 g versus 4 g (RBC): −0.11
AA mean change from baseline (RBC, Day 14, 1 g daily): −8.1 (21.95) μg/g
DGLA mean change from baseline (RBC, Day 14, 1 g daily): −2.7 (3.82) μg/g
DHA mean change from baseline (RBC, Day 14, 1 g daily): −4.6 (9.76) μg/g
DPAn-3 mean change from baseline (RBC, Day 14, 1 g daily): 0.9 (5.03) μg/g
EPA/AA mean change from baseline (RBC, Day 14, 1 g daily): 0.1 (0.04)
AA mean change from baseline (RBC, Day 14, 2 g daily): −3.1 (25.84) μg/g
DGLA mean change from baseline (RBC, Day 14, 2 g daily): −2.6 (3.54) μg/g
DHA mean change from baseline (RBC, Day 14, 2 g daily): −2.0 (9.46) μg/g
DPAn-3 mean change from baseline (RBC, Day 14, 2 g daily): 5.6 (6.28) μg/g
EPA/AA mean change from baseline (RBC, Day 14, 2 g daily): 0.2 (0.04)
AA mean change from baseline (RBC, Day 14, 4 g daily): −15.7 (26.76) μg/g
DGLA mean change from baseline (RBC, Day 14, 4 g daily): −5.3 (4.10) μg/g
DHA mean change from baseline (RBC, Day 14, 4 g daily): −6.9 (9.13) μg/g
DPAn-3 mean change from baseline (RBC, Day 14, 4 g daily): 5.4 (5.38) μg/g
EPA/AA mean change from baseline (RBC, Day 14, 4 g daily): 0.3 (0.07)
AA mean change from baseline (RBC, Day 28, 1 g daily): −17.0 (20.69) μg/g
DGLA mean change from baseline (RBC, Day 28, 1 g daily): −3.8 (3.31) μg/g
DHA mean change from baseline (RBC, Day 28, 1 g daily): −6.4 (11.57) μg/g
DPAn-3 mean change from baseline (RBC, Day 28, 1 g daily): 3.3 (5.42) μg/g
EPA/AA mean change from baseline (RBC, Day 28, 1 g daily): 0.1 (0.05)
AA mean change from baseline (RBC, Day 28, 2 g daily): −14.1 (26.89) μg/g
DGLA mean change from baseline (RBC, Day 28, 2 g daily): −4.5 (3.58) μg/g
DHA mean change from baseline (RBC, Day 28, 2 g daily): −6.2 (9.34) μg/g
DPAn-3 mean change from baseline (RBC, Day 28, 2 g daily): 9.4 (6.74) μg/g
EPA/AA mean change from baseline (RBC, Day 28, 2 g daily): 0.02 (0.06)
AA mean change from baseline (RBC, Day 28, 4 g daily): −22.8 (29.56) μg/g
DGLA mean change from baseline (RBC, Day 28, 4 g daily): −7.1 (4.63) μg/g
DHA mean change from baseline (RBC, Day 28, 4 g daily): −8.7 (11.63) μg/g
DPAn-3 mean change from baseline (RBC, Day 28, 4 g daily): 12.4 (6.98) μg/g
EPA/AA mean change from baseline (RBC, Day 28, 4 g daily): 0.4 (0.11)
AA mean change from baseline (RBC, Day 42, 1 g daily): −14.2 (27.69) μg/g
DGLA mean change from baseline (RBC, Day 42, 1 g daily): −3.5 (4.51) μg/g
DHA mean change from baseline (RBC, Day 42, 1 g daily): −7.0 (12.20) μg/g
DPAn-3 mean change from baseline (RBC, Day 42, 1 g daily): 6.5 (6.19) μg/g
EPA/AA mean change from baseline (RBC, Day 42, 1 g daily): 0.1 (0.06)
AA mean change from baseline (RBC, Day 42, 2 g daily): −18.8 (25.62) μg/g
DGLA mean change from baseline (RBC, Day 42, 2 g daily): −5.3 (3.65) μg/g
DHA mean change from baseline (RBC, Day 42, 2 g daily): −6.3 (9.42) μg/g
DPAn-3 mean change from baseline (RBC, Day 42, 2 g daily): 13.2 (7.23) μg/g
EPA/AA mean change from baseline (RBC, Day 42, 2 g daily): 0.3 (0.06)
AA mean change from baseline (RBC, Day 42, 4 g daily): −34.4 (31.44) μg/g
DGLA mean change from baseline (RBC, Day 42, 4 g daily): −8.0 (4.98) μg/g
DHA mean change from baseline (RBC, Day 42, 4 g daily): −13.8 (13.76) μg/g
DPAn-3 mean change from baseline (RBC, Day 42, 4 g daily): 16.2 (10.07) μg/g
EPA/AA mean change from baseline (RBC, Day 42, 4 g daily): 0.4 (0.14)
AA LS mean, 1 g versus 4 g (plasma): 4.2 µg/g
AA LS mean, 2 g versus 4 g (plasma): 15.6 µg/g
DGLA LS mean, 1 g versus 4 g (plasma): 3.7 µg/g
DGLA LS mean, 2 g versus 4 g (plasma): 2.5 µg/g
DHA LS mean, 1 g versus 4 g (plasma): -0.8 µg/g
DHA LS mean, 2 g versus 4 g (plasma): 1.5 µg/g
DPAn-3 LS mean, 1 g versus 4 g (plasma): -15.1 µg/g
DPAn-3 LS mean, 2 g versus 4 g (plasma): -9.5 µg/g
EPA/AA LS mean, 1 g versus 4 g (plasma): −0.66
EPA/AA LS mean, 2 g versus 4 g (plasma): −0.41
AA mean change from baseline (plasma, Day 14, 1 g daily): −9.7 (22.20) μg/g
DGLA mean change from baseline (plasma, Day 14, 1 g daily): −10.4 (10.90) μg/g
DHA mean change from baseline (plasma, Day 14, 1 g daily): −6.4 (13.30) μg/g
DPAn-3 mean change from baseline (plasma, Day 14, 1 g daily): 7.5 (5.11) μg/g
EPA/AA mean change from baseline (plasma, Day 14, 1 g daily): 0.3 (0.4)
AA mean change from baseline (plasma, Day 14, 2 g daily): −13.9 (22.13) μg/g
DGLA mean change from baseline (plasma, Day 14, 2 g daily): −14.1 (6.88) μg/g
DHA mean change from baseline (plasma, Day 14, 2 g daily): −5.4 (14.29) μg/g
DPAn-3 mean change from baseline (plasma, Day 14, 2 g daily): 17.4 (7.49) μg/g
EPA/AA mean change from baseline (plasma, Day 14, 2 g daily): 0.6 (0.23)
AA mean change from baseline (plasma, Day 14, 4 g daily): −27.2 (28.39) μg/g
DGLA mean change from baseline (plasma, Day 14, 4 g daily): −22.9 (9.00) μg/g
DHA mean change from baseline (plasma, Day 14, 4 g daily): −10.3 (13.35) μg/g
DPAn-3 mean change from baseline (plasma, Day 14, 4 g daily): 24.5 (11.28) μg/g
EPA/AA mean change from baseline (plasma, Day 14, 4 g daily): 1.1 (0.28)
AA mean change from baseline (plasma, Day 28, 1 g daily): −11.3 (28.13) μg/g
DGLA mean change from baseline (plasma, Day 28, 1 g daily): −10.6 (10.23) μg/g
DHA mean change from baseline (plasma, Day 28, 1 g daily): −6.6 (15.53) μg/g
DPAn-3 mean change from baseline (plasma, Day 28, 1 g daily): 8.9 (5.62) μg/g
EPA/AA mean change from baseline (plasma, Day 28, 1 g daily): 0.3 (0.20)
AA mean change from baseline (plasma, Day 28, 2 g daily): 21.6 (28.32) μg/g
DGLA mean change from baseline (plasma, Day 28, 2 g daily): −16.2 (9.88) μg/g
DHA mean change from baseline (plasma, Day 28, 2 g daily): −8.1 (15.82) μg/g
DPAn-3 mean change from baseline (plasma, Day 28, 2 g daily): 19.4 (8.48) μg/g
EPA/AA mean change from baseline (plasma, Day 28, 2 g daily): 0.8 (0.35)
AA mean change from baseline (plasma, Day 28, 4 g daily): −43.7 (32.24) μg/g
DGLA mean change from baseline (plasma, Day 28, 4 g daily): −24.2 (10.73) μg/g
DHA mean change from baseline (plasma, Day 28, 4 g daily): −13.5 (14.10) μg/g
DPAn-3 mean change from baseline (plasma, Day 28, 4 g daily): 29.7 (13.23) μg/g
EPA/AA mean change from baseline (plasma, Day 28, 4 g daily): 1.3 (0.42)
AA mean change from baseline (plasma, Day 42, 1 g daily): −8.7 (31.35) μg/g
DGLA mean change from baseline (plasma, Day 42, 1 g daily): −9.4 (9.41) μg/g
DHA mean change from baseline (plasma, Day 42, 1 g daily): −5.4 (18.17) μg/g
DPAn-3 mean change from baseline (plasma, Day 42, 1 g daily): 11.3 (6.61) μg/g
EPA/AA mean change from baseline (plasma, Day 42, 1 g daily): 0.3 (0.24)
AA mean change from baseline (plasma, Day 42, 2 g daily): −27.3 (26.76) μg/g
DGLA mean change from baseline (plasma, Day 42, 2 g daily): −17.3 (9.92) μg/g
DHA mean change from baseline (plasma, Day 42, 2 g daily): −6.0 (16.69) μg/g
DPAn-3 mean change from baseline (plasma, Day 42, 2 g daily): 19.3 (8.63) μg/g
EPA/AA mean change from baseline (plasma, Day 42, 2 g daily): 0.7 (0.29)
AA mean change from baseline (plasma, Day 42, 4 g daily): −48.3 (22.20) μg/g
DGLA mean change from baseline (plasma, Day 42, 4 g daily): −22.5 (10.87) μg/g
DHA mean change from baseline (plasma, Day 42, 4 g daily): −13.8 (15.31) μg/g
DPAn-3 mean change from baseline (plasma, Day 42, 4 g daily): 32.0 (16.01) μg/g
EPA/AA mean change from baseline (plasma, Day 42, 4 g daily): 1.3 (0.45)
